Record: PubChem BioAssay AID1259307 (Sanger Institute, 2017)
Purpose: 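siRNA kinome screen seeking kinases whose loss harms SW620 cells alone or with drugs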 (primary screen). Cells: SW620 colorectal cancer cells. Reagents: siRNA pool against human genes. Treatment: anchor drugs BYL719 at 1 µM, cetuximab at 5 µg/ml or trametinib at 10 nM, each beside a DMSO vehicle arm. Detection: 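Cell viability in each well relative to non-targeting controls, averaged over replicates and turned into a robust z-score; synergy with BYL719 (1 µM), cetuximab (5 µg/ml), trametinib (10 nM) versus DMSO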. Reading the numbers: viability robust z-score, no drug: higher = more viable cells. Active means: 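a knock-down counts as lethal alone if its drug-free robust viability z-score is lower than -3, regardless of synergy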. Meaning of the calls: active = essential (lethal alone); inactive = no change alone.
Here is one part, drawn at random, of 794 reagents. 15 of all reagents (1.9%) count as active. 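Calls reflect lethality without any drug; synergy scores did not enter the calls.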 Further read-outs or replicates are left out here. No sequences are given here. Not given: the amount of reagent, the time to read-out.

| gene knocked down | viability robust z-score, no drug | call |
| --- | --- | --- |
| BMPR1B (bone morphogenetic protein receptor type 1B) | 0.0417 | inactive |
| PIP5K1B (phosphatidylinositol-4-phosphate 5-kinase type 1 beta) | -1.93 | inactive |
| STK36 (serine/threonine kinase 36) | 0.736 | inactive |
| DIS3 (DIS3 exosome endoribonuclease and 3'-5' exoribonuclease) | 0.736 | inactive |
| RPS6KA4 (ribosomal protein S6 kinase A4) | 0.736 | inactive |
| PGK1 (phosphoglycerate kinase 1) | -3.04 | active |
| CAMK2A (calcium/calmodulin dependent protein kinase II alpha) | 0.116 | inactive |
| MATK (megakaryocyte-associated tyrosine kinase) | -0.853 | inactive |
| CAD | -0.922 | inactive |
| TSSK2 (testis specific serine kinase 2) | 0.507 | inactive |
| TP53BP1 (tumor protein p53 binding protein 1) | 0.736 | inactive |
| TRIB1 (tribbles pseudokinase 1) | -1.39 | inactive |
| PFKFB1 (6-phosphofructo-2-kinase/fructose-2,6-biphosphatase 1) | -1.43 | inactive |
| NADK (NAD kinase) | 0.736 | inactive |
| PRKD2 (protein kinase D2) | 0.387 | inactive |
| CAMK1G (calcium/calmodulin dependent protein kinase IG) | -1.5 | inactive |
| ABL2 (ABL proto-oncogene 2, non-receptor tyrosine kinase) | 0.389 | inactive |
| ERBB4 (erb-b2 receptor tyrosine kinase 4) | 0.736 | inactive |
| PFKFB2 (6-phosphofructo-2-kinase/fructose-2,6-biphosphatase 2) | 0.736 | inactive |
| KDR (kinase insert domain receptor) | 0.736 | inactive |
| STKLD1 (serine/threonine kinase like domain containing 1) | 0.104 | inactive |
| KSR2 (kinase suppressor of ras 2) | 0.736 | inactive |
| CKMT2 (creatine kinase, mitochondrial 2) | 0.736 | inactive |
| AK3 (adenylate kinase 3) | -1.75 | inactive |
| DGKD (diacylglycerol kinase delta) | 0.736 | inactive |
| NME2 (NME/NM23 nucleoside diphosphate kinase 2) | -0.729 | inactive |
| PRKAR2A | 0.736 | inactive |
| LMTK1 (lemur tail kinase 1) | -1.69 | inactive |
| MECOM (MDS1 and EVI1 complex locus) | 0.736 | inactive |
| DSTYK (dual serine/threonine and tyrosine protein kinase) | 0.736 | inactive |
| ULK1 (unc-51 like autophagy activating kinase 1) | 0.187 | inactive |
| ELF3 (E74 like ETS transcription factor 3) | -0.539 | inactive |
| ATM (ATM serine/threonine kinase) | -0.858 | inactive |
| FYN (FYN proto-oncogene, Src family tyrosine kinase) | 0.511 | inactive |

Individual results from above.
DIS3 (DIS3 exosome endoribonuclease and 3'-5' exoribonuclease), call → inactive
Result for PGK1 (phosphoglycerate kinase 1) under “call”: active
BMPR1B (bone morphogenetic protein receptor type 1B), call: inactive
Entry of ELF3 (E74 like ETS transcription factor 3) in “viability robust z-score, no drug”: -0.539
Under “call”, LMTK1 (lemur tail kinase 1) has inactive
KSR2 (kinase suppressor of ras 2), call = inactive
